Data as given in PubChem BioAssay AID1224828 (NIAID, 2016)
The deposit covers about 17,000 reagents; this is a part drawn at random. 762 of all reagents (4.5%) count as active. 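Active calls include both raised and lowered p65 entry, mostly lowered; wells with fewer than 50 cells lack a z-score.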 The raw values are shown without normalisation. A number with no mark means an inactive call. No sequences are given here.

Screen: 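Find genes required for NF-kappaB p65 moving into the nucleus after LPS in mouse macrophages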 (primary screen)
System: mouse RAW264.7 G9 macrophage reporter cells (GFP-p65, Tnf promoter-mCherry)
Reagent: siRNA pool against mouse genes, 100 nM
Duration: 2 days siRNA transfection, then 40 min LPS before fixation
Treatment: LPS (Salmonella minnesota R595) at 10 ng/ml
Detection: 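Microscopy ratio of nuclear to perinuclear-ring GFP-p65 signal, scaled to the plate median; gene score is the average of two replicate robust z-scores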
Scale: p65 translocation robust z-score: higher = more nuclear NF-kappaB p65 after LPS than the plate median; nuclear/cytoplasmic p65 ratio: higher = more nuclear NF-kappaB p65
Active means: 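Called active when z exceeds 3.3 or falls under -1.56 (median of Tlr4 controls), giving activity score of at least 50; no calls for control wells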
Meaning of the calls: active = hit (p65 shift raised or lowered); inactive = no clear change

no.	target gene	PubChem SID	p65 translocation robust z-score	nuclear/cytoplasmic p65 ratio, rep 1	nuclear/cytoplasmic p65 ratio, rep 2	low cell count flag
1	Ly9 (GeneID 17085)	SID315467789	-0.41	1.66	1.12	enough cells to score
2	Icam4 (GeneID 78369)	SID315475570	0.61	1.6	1.55	enough cells to score
3	Ednrb (GeneID 13618)	SID315466440	0.93	1.63	1.55	enough cells to score
4	Sdhd (GeneID 66925)	SID315472719	0.51	1.46	1.79	enough cells to score
5	Clic5 (GeneID 224796)	SID315478373	-0.85	1.37	1.26	enough cells to score
6	Syt8 (GeneID 55925)	SID315471303		1.01	0.968	fewer than 50 cells per well; well left out of scoring
7	Idh3b (GeneID 170718)	SID315477195	-0.34	1.53	1.36	enough cells to score
8	Stam2 (GeneID 56324)	SID315471459	-0.85	1.41	1.45	enough cells to score
9	Pon2 (GeneID 330260)	SID315481583	-0.12	1.48	1.39	enough cells to score
10	Hs3st2 (GeneID 195646)	SID315477466		0.952	1.18	fewer than 50 cells per well; well left out of scoring
11	Sec16a (GeneID 227648)	SID315478579	0.33	1.6	1.63	enough cells to score
12	9430077A04Rik (GeneID 320321)	SID315481285	-0.73	1.32	1.45	enough cells to score
13	Lix1 (GeneID 66643)	SID315472560	2.45	2.11	1.89	enough cells to score
14	Or10g6 (GeneID 258283)	SID315479977	-0.22	1.43	1.21	enough cells to score
15	Kcnj11 (GeneID 16514)	SID315467578	0.59	1.52	1.49	enough cells to score
16	Pagr1a (GeneID 67278)	SID315472941		1.37	1.2	fewer than 50 cells per well; well left out of scoring
17	Sval1 (GeneID 71578)	SID315474255	0.85	1.58	1.29	enough cells to score
18	Exog (GeneID 208194)	SID315477524	0.73	1.68	1.58	enough cells to score
19	Lars2 (GeneID 102436)	SID315476330	1.36	1.7	1.65	enough cells to score
20	Tspyl3 (GeneID 241732)	SID315479585	0.1	1.57	1.57	enough cells to score
21	Skil (GeneID 20482)	SID315469266	-0.07	1.49	1.59	enough cells to score
22	Cotl1 (GeneID 72042)	SID315474430	-0.13	1.52	1.8	enough cells to score
23	Rad51d (GeneID 19364)	SID315468878	-0.9	1.45	1.33	enough cells to score
24	Nrg3 (GeneID 18183)	SID315468242	-0.6	1.56	1.32	enough cells to score
25	Aard (GeneID 239435)	SID315479441		1.4	1.58	fewer than 50 cells per well; well left out of scoring
26	Mettl2 (GeneID 52686)	SID315471002	1.75	2.03	1.77	enough cells to score
27	Fndc9 (GeneID 320116)	SID315481230	1.85	1.72	1.74	enough cells to score
28	Olfr197 (GeneID 258477)	SID315480154	-1.09	1.44	1.29	enough cells to score
29	Extl1 (GeneID 56219)	SID315471409	-1.32	1.5	1.19	enough cells to score
30	Or8h7 (GeneID 258840)	SID315480482	0.69	1.76	1.68	enough cells to score
31	Metap1d (GeneID 66559)	SID315472509	1.33	1.89	1.77	enough cells to score
32	B830004H01Rik (GeneID 320289)	SID315481277	-0.51	1.49	1.77	enough cells to score
33	Dohh (GeneID 102115)	SID315476315	-0.57	1.36	1.47	enough cells to score
34	Kctd12 (GeneID 239217)	SID315479429		1.47	1.26	fewer than 50 cells per well; well left out of scoring
35	Pax6 (GeneID 18508)	SID315468395		1.21	1.07	fewer than 50 cells per well; well left out of scoring
36	Pkd2 (GeneID 18764)	SID315468549	0.31	1.49	1.49	enough cells to score
37	Fgfr2 (GeneID 14183)	SID315466677	0.39	1.75	1.43	enough cells to score
38	Rab35 (GeneID 77407)	SID315475463	-1.35	1.44	1.39	enough cells to score
39	S1pr4 (GeneID 13611)	SID315466434	0	1.48	1.61	enough cells to score
40	Prtn3 (GeneID 19152)	SID315468727	-0.08	1.35	1.22	enough cells to score
41	Tmem100 (GeneID 67888)	SID315473289	1.16	1.51	1.66	enough cells to score
42	Zfp747 (GeneID 269997)	SID315480904	-1.68 (active)	1.22	1.29	enough cells to score
43	Ndufa2 (GeneID 17991)	SID315468121	0.59	1.85	1.7	enough cells to score
44	Ttc24 (GeneID 214191)	SID315477849	0.36	1.39	1.62	enough cells to score
45	Gxylt2 (GeneID 232313)	SID315478975	-0.23	1.46	1.43	enough cells to score
46	Tmbim1 (GeneID 69660)	SID315473860		1.16	1.21	fewer than 50 cells per well; well left out of scoring
47	Mid2 (GeneID 23947)	SID315470246	1.41	1.85	1.82	enough cells to score
48	Slc1a7 (GeneID 242607)	SID315479631	0.03	1.33	1.32	enough cells to score
49	Pex5l (GeneID 58869)	SID315471927	-1.27	1.27	1.2	enough cells to score
50	Cox6b2 (GeneID 333182)	SID315481654	-1.6 (active)	1.34	1.53	enough cells to score
51	Or5p64 (GeneID 258727)	SID315480377		1.37	1.27	fewer than 50 cells per well; well left out of scoring
52	Emp1 (GeneID 13730)	SID315466493	1.3	1.6	1.53	enough cells to score
53	Itpr3 (GeneID 16440)	SID315467539	0.1	1.62	1.4	enough cells to score
54	Atg10 (GeneID 66795)	SID315472643	-1.16	1.45	1.33	enough cells to score
55	Ap3s1 (GeneID 11777)	SID315465443	-0.7	1.43	1.48	enough cells to score
56	Tmem164 (GeneID 209497)	SID315477601	0.16	1.54	1.62	enough cells to score
57	Cep72 (GeneID 74470)	SID315474983	-0.81	1.22	1.39	enough cells to score
58	Esyt1 (GeneID 23943)	SID315470244	-0.19	1.45	1.58	enough cells to score
59	Svs6 (GeneID 20945)	SID315469542		1.3	1.17	fewer than 50 cells per well; well left out of scoring

Not a retest: an excerpt of the list.
no.	target gene	PubChem SID	p65 translocation robust z-score	nuclear/cytoplasmic p65 ratio, rep 1	nuclear/cytoplasmic p65 ratio, rep 2	low cell count flag
42	Zfp747 (GeneID 269997)	SID315480904	-1.68 (active)	1.22	1.29	enough cells to score
43	Ndufa2 (GeneID 17991)	SID315468121	0.59	1.85	1.7	enough cells to score
44	Ttc24 (GeneID 214191)	SID315477849	0.36	1.39	1.62	enough cells to score
45	Gxylt2 (GeneID 232313)	SID315478975	-0.23	1.46	1.43	enough cells to score
46	Tmbim1 (GeneID 69660)	SID315473860		1.16	1.21	fewer than 50 cells per well; well left out of scoring
47	Mid2 (GeneID 23947)	SID315470246	1.41	1.85	1.82	enough cells to score
48	Slc1a7 (GeneID 242607)	SID315479631	0.03	1.33	1.32	enough cells to score
